Measurements reported in PubChem BioAssay AID1671195 (Yale University, 2021)
The deposit covers about 22,000 reagents; shown is a random part of them. In the full data, about 1,510 (6.9%) were called active. 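Active includes knockdowns raising or lowering LDL uptake; positive z-scores mean more uptake, negative mean less.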 Entries without a mark were called inactive.

Assay: 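Knockdowns that increase or decrease uptake of fluorescent LDL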 (primary screen)
Cells: human Huh7 hepatoma cells
Reagents: siRNA pool against human genes, 18 nM
Timing: about 2 to 2.5 days of knockdown, then 8 h LDL uptake
Conditions: DiI-labelled LDL at 30 µg/ml for 8 h, in lipoprotein-deficient serum medium
Measurement: 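Per-cell DiI-LDL intensity by automated imaging; well means scaled to the plate median and given as a robust z-score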
Scale: robust z-score: higher = more LDL uptake after knockdown
Rule for the call: 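Active when two or more replicates show a robust z-score above 2 or below -2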

gene knocked down	robust z-score, replicate 1	robust z-score, replicate 2	robust z-score, replicate 3
RCAN1	2.32	1.28	1.61
LOC391427 (retired record)	0.535	-0.186	-0.444
WSCD2	-0.0346	-1.62	-1
NEDD4L	0.216	0.374	0.189
LOC440424 (retired record)	0.279	0.881	1.14
PTCH1	0.0992	-1.56	-0.359
TAAR2	0.54	0.223	-0.425
GSTM4	-0.293	0.454	-1.03
LPAR1	-0.376	-0.164	-0.12
WWC3	0.397	0.226	0.351
LOC392222 (retired record)	0.891	0.868	0.58
ACSM5	1.55	1.67	1.1
MPZL2	-0.319	0.104	0.345
CLDN19	0	-0.0846	0.0185
KRT39	0.333	-0.314	-0.154
RRP8	-2 (active)	-0.0758	-2.38
TAOK2	0.725	-0.092	0.49

In a second layout: 2 of the entries above
{"gene knocked down":"LOC392222 (retired record)","robust z-score, replicate 1":0.891,"robust z-score, replicate 2":0.868,"robust z-score, replicate 3":0.58}
{"gene knocked down":"ACSM5","robust z-score, replicate 1":1.55,"robust z-score, replicate 2":1.67,"robust z-score, replicate 3":1.1}

Next results:
gene knocked down	robust z-score, replicate 1	robust z-score, replicate 2	robust z-score, replicate 3
STRIP1	-0.822	-0.034	-0.695
WRAP73	1.23	-1.25	-0.0776
PPP4R3B	1.69	1.46	0.398
OR2D3	-0.152	-0.118	-0.412
ZBTB12	1.28	0.872	0.853
FLT1P1	-0.519	-1.47	-1.6
OR51T1	-1.18	-1.47	-1.54
ITGA9	0.95	-1.04	-1.07
VWCE	0.701	0.403	0.376
DBF4	-1.4	-0.581	-0.85
MOB3A	-0.448	-1.1	-1.45
